Test system: Lactobacillus plantarum
Test: Phase 1: neutraliser validation using Lactobacillus plantarum
Assay type: cell-based
Conditions: for Efficacy: neutralisation of the test agent; for Toxicity: toxicity to L. plantarum

| Substance | Efficacy (neutraliser DE-N) | Toxicity (neutraliser DE-N) | Efficacy (neutraliser Quench) | Toxicity (neutraliser Quench) |
| --- | --- | --- | --- | --- |
| Zinc gluconate | Yes | No | No | No |
| Copper gluconate | Yes | No | No | No |

— patent US20230218666A1, “ANTIMICROBIAL COMBINATIONS” (MARVELBIOTICS LIMITED, priority 2020, published 2023)
